Assay results as given in paper doi:10.1101/2025.06.04.657812.
Changes are numbered by the printed parent chain. Construct, isoform or probe ends are uncertain for at least one entry. For some assays here: At least one verdict was read from the data and is not stated in words by the source. Protein sequences can lack the tags named with them.

Columns and labels:
LSH_K254A (human) = target: T1, LSH_K254A (human) (UniProt Q9NRZ9); test: EMSA; conditions: 0-20 uM LSH, residues 1-838
T1 sequence (looked up): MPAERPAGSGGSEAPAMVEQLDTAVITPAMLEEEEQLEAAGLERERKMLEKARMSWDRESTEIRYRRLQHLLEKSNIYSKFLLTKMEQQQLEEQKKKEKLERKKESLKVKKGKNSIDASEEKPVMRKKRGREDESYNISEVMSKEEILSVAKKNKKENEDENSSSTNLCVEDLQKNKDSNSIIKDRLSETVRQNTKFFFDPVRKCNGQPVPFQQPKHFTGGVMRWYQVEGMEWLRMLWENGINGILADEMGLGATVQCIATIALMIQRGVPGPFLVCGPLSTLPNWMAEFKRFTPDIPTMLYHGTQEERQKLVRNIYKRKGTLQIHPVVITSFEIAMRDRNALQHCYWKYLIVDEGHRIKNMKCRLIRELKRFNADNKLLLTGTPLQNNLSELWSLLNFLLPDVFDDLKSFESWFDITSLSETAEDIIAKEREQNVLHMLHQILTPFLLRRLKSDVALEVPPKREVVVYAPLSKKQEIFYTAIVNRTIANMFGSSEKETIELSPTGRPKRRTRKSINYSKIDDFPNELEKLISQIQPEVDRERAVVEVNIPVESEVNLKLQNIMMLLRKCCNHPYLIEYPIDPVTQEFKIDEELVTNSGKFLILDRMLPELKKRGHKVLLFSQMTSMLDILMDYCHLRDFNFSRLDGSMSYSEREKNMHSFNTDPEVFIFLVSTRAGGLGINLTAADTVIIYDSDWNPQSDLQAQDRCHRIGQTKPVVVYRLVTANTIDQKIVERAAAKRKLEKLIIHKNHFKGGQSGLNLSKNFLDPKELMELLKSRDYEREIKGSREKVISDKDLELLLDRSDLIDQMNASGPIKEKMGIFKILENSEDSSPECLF

LSH_WT (human) = target: T2, LSH_WT (human) (UniProt Q9NRZ9); test: EMSA; conditions: 0-20 uM LSH, residues 1-838
T2 sequence (looked up): T1 sequence (looked up) with A254K

| Sequence | binding result (LSH_K254A (human); DNA:RNA hybrid) | binding result (LSH_WT (human); DNA:RNA hybrid) | binding result (LSH_K254A (human)) | binding result (LSH_WT (human)) |
| --- | --- | --- | --- | --- |
| GTCACTTGATAAGAGGTCATTTGAATTCATGGCTTAGAGCTTAATTGCTGAATCTGGTGCTGGGATCCAACATGTTTTAAATATGCAATG / GCACCAGAUUCAGCAAUUAAGCUCUAAGCC [RNA:DNA hybrid without RNA overhang (DNA2/RNA2)] | binds | binds |  |  |
| GTCACTTGATAAGAGGTCATTTGAATTCATGGCTTAGAGCTTAATTGCTGAATCTGGTGCTGGGATCCAACATGTTTTAAATATGCAATG / GUGCUACGAUGCUAGUCGGGGAGUGCACCAGAUUCAGCAAUUAAGCUCUAAGCC [RNA:DNA hybrid with 5'-RNA overhang (DNA2/RNA1)] | binds | binds |  |  |
| CATTGCATATTTAAAACATGTTGGATCCCACGTTGCATGCTGATAGCCTACTAGAGCTGTATGAATTCAAATGACCTCTTATCAAGTGAC / GTCACTTGATAAGAGGTCATTTGAATTCATGGCTTAGAGCTTAATTGCTGAATCTGGTGCTGGGATCCAACATGTTTTAAATATGCAATG / GUGCUACGAUGCUAGUCGGGGAGUGCACCAGAUUCAGCAAUUAAGCUCUAAGCC [R-loop with 5'-RNA overhang (DNA1/DNA2/RNA1)] |  |  | binds | binds |
| CATTGCATATTTAAAACATGTTGGATCCCACGTTGCATGCTGATAGCCTACTAGAGCTGTATGAATTCAAATGACCTCTTATCAAGTGAC / GTCACTTGATAAGAGGTCATTTGAATTCATGGCTTAGAGCTTAATTGCTGAATCTGGTGCTGGGATCCAACATGTTTTAAATATGCAATG / GCACCAGAUUCAGCAAUUAAGCUCUAAGCC [R-loop without RNA overhang (DNA1/DNA2/RNA2)] |  |  | binds | binds |
